Data published in paper PMC12670160, “A drug-repurposing screen of FDA- and EMA-approved drugs identifies two NF-κB inhibitors active against eumycetoma” (Journal of Antimicrobial Chemotherapy, 2025).
Where a name gives a salt, the structure may show the parent alone. Hit rate of the full screen: of about 5,300 compounds, about 130 (2.5%) showed an effect of 50% or more. The list shows a part of the results.

system: M. mycetomatis strain mm55; conditions: primary screen, metabolic activity vs growth control; 96 h, 2 µM; inhibitor

Row | SMILES | % viability [%]
1 | CCCc1nc2c(C)cc(-c3nc4ccccc4n3C)cc2n1Cc1ccc(-c2ccccc2C(=O)O)cc1 [ONC0004276, telmisartan] | 79.05
2 | CCCCC1C(=O)N(c2ccccc2)N(c2ccccc2)C1=O [ONC0000612, phenylbutazone] | 113
3 | CC[N+](CC)(CCNC(=O)C(=O)NCC[N+](CC)(CC)Cc1ccccc1Cl)Cc1ccccc1Cl [ONC0001517, ambenonium] | 123.4
4 | CN1C2C[C@H](OC(=O)[C@H](CO)c3ccccc3)C[C@@H]1[C@@H](O)C2 [ONC0003283, anisodamine hydrobromide] | 41.57
5 | Nc1nccc(-c2ccc3noc(-c4ccc(Cl)cc4)c3c2)n1 [ONC0000186, pim1inhibitor2] | 85.8
6 | CC(=O)N[C@H]1[C@H]([C@H](O)[C@H](O)CO)OC(C(=O)O)=C[C@@H]1N=C(N)N [ONC0004525, zanamivir relenza] | 62.68
7 | CCCC[P+](CCCC)(CCCC)Cc1ccc(NC(=O)[C@H](Cc2ccc3ccccc3c2)N=C(NC2CCCCC2)NC2CCCCC2)cc1 [ONC0000223, win64338] | 62.1
8 | COc1cc2ncnc(Nc3ccc(F)c(Cl)c3)c2cc1NC(=O)/C=C/CN1CCCCC1 [ONC0005075, dacomitinib pf299804 pf00299804] | 117.1
9 | O=C(CCCCC(=O)Nc1c(I)cc(I)c(C(=O)O)c1I)Nc1c(I)cc(I)c(C(=O)O)c1I [ONC0003852, iodipamide] | 70.04
10 | N#Cc1cccc(C(=O)Nc2cc(-c3ccccc3)nn2-c2ccccc2)c1 [ONC0002557, cdppb] | 86.8
11 | Cc1ccc(C(=O)C(C)CN2CCCCC2)cc1 (centres unmarked) [ONC0000616, tolperisone hydrochloride] | 105
12 | COc1ccccc1N1CCN(CC(O)COc2cc(OC)c(OC)c(OC)c2)CC1 (centres unmarked) [ONC0002005, enciprazine] | 99.71
13 | CNCC[C@@H](Oc1ccccc1C)c1ccccc1 [ONC0003976, atomoxetine hydrochloride] | 102.9
14 | Cc1ccc(Cl)c(OCC(O)CNC(C)C)c1 (centres unmarked) [ONC0003711, 12chloro5methylphenoxy3isopropylamino2propanol] | 103
15 | CO[C@@H]1[C@H](O)[C@@H](CO)O[C@H]1n1cnc2c(NC3CCCCC3)ncnc21 [ONC0001403, sdzwag994] | 110.5
16 | NS(=O)(=O)C#Cc1ccccc1 [ONC0003052, pifithrinmu] | 89.98
17 | CC(C)C1C2CCC(C2)C1N (centres unmarked) [ONC0000835, agn192403] | 89.35
18 | Cc1cc(Nc2nc(N[C@@H](C)c3ncc(F)cn3)ncc2Cl)n[nH]1 [ONC0000920, azd1480] | 80.14
19 | COCCCOc1ccnc(C[S+]([O-])c2nc3ccccc3[nH]2)c1C (centres unmarked) [ONC0000724, rabeprazole sodium] | 77.4
20 | Cc1cc(Nc2ncc(Cl)c(Nc3ccccc3S(=O)(=O)C(C)C)n2)c(OC(C)C)cc1C1CCNCC1 [ONC0002094, ceritinib] | 66.29

Row | SMILES | % viability [%]
21 | C#C[C@]1(O)CC[C@H]2[C@@H]3CCC4=CC(=NO)CC[C@@H]4[C@H]3CC[C@@]21CC (mixture of isomers) [ONC0000953, norgestimate metabolite norelgestromin] | 67.65
22 | O[C@H]1CC[C@H](Nc2nc(-c3ccccc3)nc3[nH]ccc23)CC1 [ONC0002724, slv320] | 89.36
23 | CCN(CC)CCCN(c1ccccc1)C1Cc2ccccc2C1 [ONC0005460, aprindine] | 71.07
24 | CS(=O)(=O)O.Cc1ncc(NC(=O)c2ccc(CN3CCN(C)CC3)c(C(F)(F)F)c2)cc1Nc1nccc(-c2cccnc2)n1 [ONC0000733, flumatinib mesylate] | 70.92
25 | NS(=O)(=O)NCCNc1nonc1C(=NO)Nc1ccc(F)c(Br)c1 [ONC0005250, epacadostat incb024360] | 130.3
26 | N[C@@H](CCNCc1ccc(Cl)cc1)C(=O)N1CCCCC1 [ONC0001425, uamc00039] | 60.53
27 | CC1CCC(O)C/C1=C\C=C1/CCCC2(C)C1CCC2C(C)/C=C/C(C)C(C)C (centres unmarked) [ONC0003794, dihydrotachysterol] | 64.86
28 | C[C@@H](Oc1cc(-c2cnn(C3CCNCC3)c2)cnc1N)c1c(Cl)ccc(F)c1Cl [ONC0004739, crizotinib pf02341066] | 108
29 | CC(Cc1ccc(O)c(O)c1)C(C)Cc1ccc(O)c(O)c1 (centres unmarked) [ONC0003497, nordihydroguaiaretic acid] | 60.17
30 | C[C@@H](C(=O)O)c1ccc(-c2ccccc2)c(F)c1 [ONC0001617, flurizan] | 81.17
31 | Cc1cc(OI)c(C(C)C)cc1-c1cc(C(C)C)c(OI)cc1C [ONC0002733, thymol iodide] | 87.5
32 | CC(=O)OCC(=O)[C@@]12OC3(CCCC3)O[C@@H]1C[C@H]1[C@@H]3CCC4=CC(=O)C=C[C@]4(C)[C@@]3(F)[C@@H](O)C[C@@]12C [ONC0002738, amcinonide] | 104
33 | Cc1nc(N(C)C(=O)Cc2ccc(-c3ccccn3)cc2)sc1S(N)(=O)=O [ONC0005353, pritelivir] | 121.5
34 | C/C(=N\NC(=N)N)c1cc(NC(=O)CCCCCCCCC(=O)Nc2cc(/C(C)=N/NC(=N)N)cc(/C(C)=N/NC(=N)N)c2)cc(/C(C)=N/NC(=N)N)c1 [ONC0003851, semapimod] | 78.92
35 | C/C(O)=C(\C#N)C(=O)Nc1ccc(C(F)(F)F)cc1 [ONC0000878, teriflunomide] | 64.9
36 | Cc1oc(=O)oc1CN1CCN(c2cc3c(cc2F)c(=O)c(C(=O)O)c2n3C(C)S2)CC1 (centres unmarked) [ONC0004205, prulifloxacin] | 94.79
37 | COc1nc(C)cnc1NS(=O)(=O)c1cccnc1-c1ccc(-c2nnco2)cc1 [ONC0004889, zibotentan zd4054] | 118.1
38 | O=C(CC1CC(c2ccc(F)cc2F)=NO1)N1CCOCC1 (centres unmarked) [ONC0000237, cpsi1306] | 89.07
39 | CNC(=O)Oc1cccc2ccccc12 [ONC0004309, carbaril] | 58.5
40 | C/C(=C\CNc1ncnc2[nH]cnc12)CO [ONC0003835, zeatin] | 65.76

Row | SMILES | % viability [%]
41 | O=C(NCc1ccc2c(c1)OCO2)c1c(Cl)cccc1Cl [ONC0001694, alda1] | 71.27
42 | Cn1cc(C2=C(c3cn(CCCSC(=N)N)c4ccccc34)C(=O)NC2=O)c2ccccc21 [ONC0002507, bisindolylmaleimideix] | 68.21
43 | C[C@@H]1O[C@@H](O[C@H]2[C@H](Oc3cc(O)c4c(c3)O[C@H](c3ccc(O)cc3)CC4=O)O[C@H](CO)[C@@H](O)[C@@H]2O)[C@H](O)[C@H](O)[C@H]1O [ONC0004654, naringin naringoside] | 64.69
44 | N[C@@H](CC(=O)N1CCn2c(nnc2C(F)(F)F)C1)Cc1cc(F)c(F)cc1F [ONC0004045, sitagliptin phosphate] | 93.31
45 | CCN1CCCC1=O [ONC0002753, 1ethyl2pyrrolidone] | 114.4
46 | COc1ccc(CC(=O)NC(N/C(=N/C#N)Nc2cccc3ncccc23)C(C)(C)C)cc1OC (centres unmarked) [ONC0001613, a740003] | 77.73
47 | NS(=O)(=O)Oc1ccc2c3c(c(=O)oc2c1)CCCCC3 [ONC0005449, irosustat] | 97.6
48 | CCN(CC)CC1CCCCN1CC(=O)N1c2ccccc2C(=O)Nc2cccnc21 (centres unmarked) [ONC0001676, otenzepad] | 55.9
49 | CCN1CCN(C(=O)Cc2ccc(Nc3ncc(F)c(Nc4ccc(C(=O)Nc5ccccc5Cl)cc4)n3)cc2)CC1 [ONC0002566, auroraainhibitori] | 68.8
50 | N=C(Nc1ccccc1)Nc1ccccc1 [ONC0003576, diphenylguanidine] | 111.9
51 | CCC(C/C=C/c1ccccc1)(c1ccccc1)N(C)CC1CC1 (centres unmarked) [ONC0003075, igmesine] | 61.21
52 | NC(=O)Nc1sc(-c2ccc(F)cc2)cc1C(N)=O [ONC0001263, tpca1] | 73.02
53 | CC#CCC(C)[C@H](O)/C=C/[C@@H]1[C@H]2C/C(=C/CCCC(=O)O)C[C@H]2C[C@H]1O (some centres unmarked) [ONC0001765, iloprost] | 85.71
54 | CC1(C)C(=O)N(CCN2CCC(C(=O)c3ccc(F)cc3)CC2)c2ccccc21 [ONC0000898, ly310762] | 86.5
55 | CCCN(CCC)CCc1ccc(OC)c(OCCc2ccccc2)c1 [ONC0000866, ne100] | 62.29
56 | CC(C)(C)OC(=O)N[C@H]1CCCCC/C=C\[C@@H]2C[C@@]2(C(=O)NS(=O)(=O)C2CC2)NC(=O)[C@@H]2C[C@@H](OC(=O)N3Cc4cccc(F)c4C3)CN2C1=O [ONC0004588, danoprevir itmn191] | 78.54
57 | O=C(Nc1ccccc1)OCC(CN1CCCCC1)OC(=O)Nc1ccccc1 (centres unmarked) [ONC0004024, diperodon hydrochloride] | 82.88
58 | COc1cc2c(cc1OC)-c1c(C)c3ccc(OC)c(OC)c3c[n+]1CC2 [ONC0000781, dehydrocorydaline chloride] | 81.79
59 | CN1C2CCC1CC(OC(c1ccccc1)c1ccc(Cl)cc1)C2 (centres unmarked) [ONC0001885, 3cpmt] | 93.95

Rewritten as labelled records: 3 of the compounds above
C[C@@H]1O[C@@H](O[C@H]2[C@H](Oc3cc(O)c4c(c3)O[C@H](c3ccc(O)cc3)CC4=O)O[C@H](CO)[C@@H](O)[C@@H]2O)[C@H](O)[C@H](O)[C@H]1O [ONC0004654, naringin naringoside]
  % viability [%]: 64.69
N[C@@H](CC(=O)N1CCn2c(nnc2C(F)(F)F)C1)Cc1cc(F)c(F)cc1F [ONC0004045, sitagliptin phosphate]
  % viability [%]: 93.31
CCN1CCCC1=O [ONC0002753, 1ethyl2pyrrolidone]
  % viability [%]: 114.4
